# Data: the supplement of paper PMC8728848
# The other results are listed elsewhere or left out.
# Key:
# Assay in all cases: glycan array binding signal (z-score within array); higher = stronger binding
# Settings in all cases: glycan notation: IUPAC condensed, linker removed
# [1] = tested on: Fuc(a1-3)[Gal(b1-4)]GlcNAc(b1-3)Gal(b1-3)[Fuc(a1-4)]GlcNAc
# Outline: (§1)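 The binding signal is a Z-score computed within each array and averaged over linkers. Arrays of the same protein sequence at different concentrations or buffers were also averaged together. Data originate from 3228 arrays in the Consortium for Functional Glycomics database, kept only where the protein sequence was available.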
# [2] = tested on: Fuc(a1-3)[Gal(b1-4)]GlcNAc(b1-3)Gal(b1-4)[Fuc(a1-3)]GlcNAc(b1-3)Gal(b1-4)[Fuc(a1-3)]GlcNAc
# Outline: as §1
# [3] = tested on: Fuc(a1-3)[Gal(b1-4)]GlcNAc(b1-3)Gal(b1-4)[Fuc(a1-3)]GlcNAc
# Outline: as §1
# [4] = tested on: Fuc(a1-3)[Gal(b1-4)]GlcNAc(b1-3)GalNAc
# Outline: as §1
# [5] = tested on: Fuc(a1-3)[Gal(b1-4)]GlcNAc(b1-6)GalNAc
# Outline: as §1
# [6] = tested on: Fuc(a1-3)[Gal(b1-4)]GlcNAc(b1-6)[Gal(b1-3)GlcNAc(b1-3)]Gal(b1-4)Glc
# Outline: as §1
# [7] = tested on: Fuc(a1-3)[Gal(b1-4)]GlcNAc6S
# Outline: as §1
# [8] = tested on: Fuc(a1-3)[Gal(b1-4)]GlcNAc
# Outline: as §1
# [9] = tested on: Fuc(a1-3)[Gal3S(b1-4)]GlcNAc6S
# Outline: as §1
# [10] = tested on: Fuc(a1-3)[Gal3S(b1-4)]GlcNAc
# Outline: as §1
# [11] = tested on: Fuc(a1-3)[Gal3S(b1-4)]Glc
# Outline: as §1
# [12] = tested on: Fuc(a1-3)[GalNAc(b1-4)]GlcNAc6S
# Outline: as §1
# [13] = tested on: Fuc(a1-3)[GalNAc(b1-4)]GlcNAc
# Outline: as §1
# Fuc(a1-4)GlcNAc = tested on: Fuc(a1-4)GlcNAc
# Outline: as §1
# Fuc(b1-3)GlcNAc = tested on: Fuc(b1-3)GlcNAc
# Outline: as §1
# Gal(a1-2)Gal = tested on: Gal(a1-2)Gal
# Outline: as §1
# [14] = tested on: Gal(a1-3)Gal(b1-3)GlcNAc(b1-2)Man(a1-3)[Gal(a1-3)Gal(b1-3)GlcNAc(b1-2)Man(a1-6)]Man(b1-4)GlcNAc(b1-4)GlcNAc
# Outline: as §1
# [15] = tested on: Gal(a1-3)Gal(b1-3)GlcNAc(b1-2)Man
# Outline: as §1
# [16] = tested on: Gal(a1-3)Gal(b1-3)GlcNAc(b1-3)GalNAc
# Outline: as §1
# [17] = tested on: Gal(a1-3)Gal(b1-3)GlcNAc(b1-6)GalNAc
# Outline: as §1
# Gal(a1-3)Gal(b1-3)GlcNAc = tested on: Gal(a1-3)Gal(b1-3)GlcNAc
# Outline: as §1
# [18] = tested on: Gal(a1-3)Gal(b1-3)[Fuc(a1-4)]GlcNAc(b1-2)Man(a1-3)[Gal(a1-3)Gal(b1-3)[Fuc(a1-4)]GlcNAc(b1-2)Man(a1-6)]Man(b1-4)GlcNAc(b1-4)GlcNAc
# Outline: as §1
# [19] = tested on: Gal(a1-3)Gal(b1-4)GlcNAc(b1-2)Man(a1-3)[Gal(a1-3)Gal(b1-4)GlcNAc(b1-2)Man(a1-6)]Man(b1-4)GlcNAc(b1-4)GlcNAc
# Outline: as §1
# [20] = tested on: Gal(a1-3)Gal(b1-4)GlcNAc(b1-2)Man
# Outline: as §1
# [21] = tested on: Gal(a1-3)Gal(b1-4)GlcNAc(b1-3)GalNAc
# Outline: as §1
# [22] = tested on: Gal(a1-3)Gal(b1-4)GlcNAc(b1-6)GalNAc
# Outline: as §1
# Gal(a1-3)Gal(b1-4)GlcNAc = tested on: Gal(a1-3)Gal(b1-4)GlcNAc
# Outline: as §1
# Gal(a1-3)Gal(b1-4)Glc = tested on: Gal(a1-3)Gal(b1-4)Glc
# Outline: as §1
# [23] = tested on: Gal(a1-3)Gal(b1-4)[Fuc(a1-3)]GlcNAc(b1-2)Man(a1-3)[Gal(a1-3)Gal(b1-4)[Fuc(a1-3)]GlcNAc(b1-2)Man(a1-6)]Man(b1-4)GlcNAc(b1-4)GlcNAc
# Outline: as §1
# [24] = tested on: Gal(a1-3)Gal(b1-4)[Fuc(a1-3)]GlcNAc
# Outline: as §1
# Gal(a1-3)GalNAc = tested on: Gal(a1-3)GalNAc
# Outline: as §1
# Gal(a1-3)Gal = tested on: Gal(a1-3)Gal
# Outline: as §1
substance,measurement,setting,value
MpAFP RI GFP (Marinomonas primoryensis),glycan array binding signal (z-score),[1],0.725
same,glycan array binding signal (z-score),[2],-0.048
same,glycan array binding signal (z-score),[3],0.341
same,glycan array binding signal (z-score),[4],-0.127
same,glycan array binding signal (z-score),[5],-0.034
same,glycan array binding signal (z-score),[6],0.087
same,glycan array binding signal (z-score),[7],1.46
same,glycan array binding signal (z-score),[8],-0.299
same,glycan array binding signal (z-score),[9],-0.26
same,glycan array binding signal (z-score),[10],-0.585
same,glycan array binding signal (z-score),[11],-0.612
same,glycan array binding signal (z-score),[12],-0.258
same,glycan array binding signal (z-score),[13],0.371
same,glycan array binding signal (z-score),Fuc(a1-4)GlcNAc,0.716
same,glycan array binding signal (z-score),Fuc(b1-3)GlcNAc,0.355
same,glycan array binding signal (z-score),Gal(a1-2)Gal,-0.305
same,glycan array binding signal (z-score),[14],0.574
same,glycan array binding signal (z-score),[15],-0.538
same,glycan array binding signal (z-score),[16],-0.383
same,glycan array binding signal (z-score),[17],-0.768
same,glycan array binding signal (z-score),Gal(a1-3)Gal(b1-3)GlcNAc,-0.702
same,glycan array binding signal (z-score),[18],2.56
same,glycan array binding signal (z-score),[19],0.155
same,glycan array binding signal (z-score),[20],-0.409
same,glycan array binding signal (z-score),[21],-0.564
same,glycan array binding signal (z-score),[22],-0.171
same,glycan array binding signal (z-score),Gal(a1-3)Gal(b1-4)GlcNAc,-0.748
same,glycan array binding signal (z-score),Gal(a1-3)Gal(b1-4)Glc,-0.137
same,glycan array binding signal (z-score),[23],1.33
same,glycan array binding signal (z-score),[24],-0.5
same,glycan array binding signal (z-score),Gal(a1-3)GalNAc,-0.245
same,glycan array binding signal (z-score),Gal(a1-3)Gal,-0.551

# Retrieved one by one from above:
substance,measurement,setting,value
MpAFP RI GFP (Marinomonas primoryensis),glycan array binding signal (z-score),[3],0.341
same,glycan array binding signal (z-score),Gal(a1-3)Gal,-0.551
